# Reference: patent publication US4665183A, “Process for preparing 6,7,8,9-tetrahydro-10-methylpyrido[1,2-a]indol-9-amines and derivatives thereof useful for the treatment of cognitive impairments” (American Home Products Corp., priority 1986, dated 1987)
# Experiment: Passive avoidance test: scopolamine-induced memory impairment in rats
# Format: in vivo, male Sprague-Dawley
# Conditions: scopolamine 2.0 mg/kg s.c. 15 or 30 minutes prior to the training session
compound,measurement,value
CN1[C@@H]2C[C@@H](OC(=O)[C@H](CO)c3ccccc3)C[C@H]1[C@@H]1O[C@@H]12 [scopolamine],time to enter the dark compartment during the retention test,≤ 50 s
